Data from the primary screen of doi:10.1371/journal.pone.0140310, rounded.

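Human melanoma cells were exposed to two drugs together for 72 h in 1,536-well plates and read by automated microscopy after fixing and staining. Values are the number of DAPI-stained nuclei as a percentage of the DMSO control: 100 is no effect, lower means fewer cells. Every drug was used at one fixed concentration, the lower of two screened (a fifth of the higher). The file gives one value for each pair and line, without errors, so small differences may be noise.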
Only some of the drugs and lines screened are listed, without regard to their results.
A dash means that no value is listed here.

Drugs:
Src-I1 (2 µM): COc1cc2ncnc(Nc3ccc(Oc4ccccc4)cc3)c2cc1OC
IMD-0354 (0.016 µM): O=C(Nc1cc(C(F)(F)F)cc(C(F)(F)F)c1)c1cc(Cl)ccc1O
L-779450 (0.2 µM): Oc1cc(-c2nc(-c3ccccc3)[nH]c2-c2ccncc2)ccc1Cl
FH535 (1 µM): Cc1cc([N+](=O)[O-])ccc1NS(=O)(=O)c1cc(Cl)ccc1Cl
SNS-032 (0.01 µM): CC(C)(C)c1cnc(CSc2cnc(NC(=O)C3CCNCC3)s2)o1
PF-562271 (0.08 µM): CN(c1ncccc1CNc1nc(Nc2ccc3c(c2)CC(=O)N3)ncc1C(F)(F)F)S(C)(=O)=O
STA-4783 (0.006 µM): CN(NC(=O)CC(=O)NN(C)C(=S)c1ccccc1)C(=S)c1ccccc1
GW2580 (1 µM): COc1ccc(COc2ccc(Cc3cnc(N)nc3N)cc2OC)cc1
tanespimycin (0.002 µM): C=CCNC1=C2C[C@@H](C)C[C@H](OC)[C@H](O)[C@@H](C)/C=C(\C)[C@H](OC(N)=O)[C@@H](OC)/C=C\C=C(/C)C(=O)NC(=CC1=O)C2=O
fingolimod (2 µM): CCCCCCCCc1ccc(CCC(N)(CO)CO)cc1
AS-252424 (1 µM): O=C1NC(=O)/C(=C/c2ccc(-c3ccc(F)cc3O)o2)S1
ABT-263 (0.4 µM): CC1(C)CCC(c2ccc(Cl)cc2)=C(CN2CCN(c3ccc(C(=O)NS(=O)(=O)c4ccc(N[C@H](CCN5CCOCC5)CSc5ccccc5)c(S(=O)(=O)C(F)(F)F)c4)cc3)CC2)C1
ZM336372 (2 µM): Cc1ccc(NC(=O)c2cccc(N(C)C)c2)cc1NC(=O)c1ccc(O)cc1

Drugs	A375	C32	A2058	A101D
IMD-0354 and STA-4783	32.9	83.4	90.3	86.3
PF-562271 and ZM336372	75.5	82.6	82.5	81.4
ABT-263 and AS-252424	-	51.4	91.8	56.2
Src-I1 and AS-252424	97.7	94.3	95.8	97.0
fingolimod and SNS-032	70.6	97.3	91.4	69.1
ZM336372 and ABT-263	93.8	63.5	84.7	47.8
PF-562271 and SNS-032	73.1	92.8	85.4	95.1
IMD-0354 and SNS-032	98.0	100	93.8	94.7
tanespimycin and SNS-032	85.6	57.1	94.9	110
ABT-263 and STA-4783	59.2	47.8	74.3	36.5
tanespimycin and STA-4783	31.4	56.0	81.1	79.7
ZM336372 and tanespimycin	106	80.3	99.3	121
GW2580 and fingolimod	-	94.2	93.7	83.4
tanespimycin and FH535	-	59.8	99.6	76.9
ABT-263 and FH535	-	42.9	84.6	42.1
SNS-032 and ABT-263	88.0	78.4	98.1	61.4
L-779450 and ABT-263	-	53.0	101	64.0
STA-4783 and PF-562271	36.3	56.3	77.8	67.4
fingolimod and ZM336372	61.5	93.8	75.2	59.2
IMD-0354 and ZM336372	91.0	101	97.1	89.5

2 of the entries, repeated:

Drugs	A375	C32	A2058	A101D
GW2580 and fingolimod	-	94.2	93.7	83.4
tanespimycin and STA-4783	31.4	56.0	81.1	79.7